Measurements published in patent US20180369403A1 (University of Texas, published 2018).
Results are given in words; binding and its absence hold for the method and conditions named. Some entries that bind do so weakly or less than the wild type.

Chains of the proteins cited; added tags and fusions are not shown. Residues count along the entry.
UniProt Q9BXB1, residues 25-951: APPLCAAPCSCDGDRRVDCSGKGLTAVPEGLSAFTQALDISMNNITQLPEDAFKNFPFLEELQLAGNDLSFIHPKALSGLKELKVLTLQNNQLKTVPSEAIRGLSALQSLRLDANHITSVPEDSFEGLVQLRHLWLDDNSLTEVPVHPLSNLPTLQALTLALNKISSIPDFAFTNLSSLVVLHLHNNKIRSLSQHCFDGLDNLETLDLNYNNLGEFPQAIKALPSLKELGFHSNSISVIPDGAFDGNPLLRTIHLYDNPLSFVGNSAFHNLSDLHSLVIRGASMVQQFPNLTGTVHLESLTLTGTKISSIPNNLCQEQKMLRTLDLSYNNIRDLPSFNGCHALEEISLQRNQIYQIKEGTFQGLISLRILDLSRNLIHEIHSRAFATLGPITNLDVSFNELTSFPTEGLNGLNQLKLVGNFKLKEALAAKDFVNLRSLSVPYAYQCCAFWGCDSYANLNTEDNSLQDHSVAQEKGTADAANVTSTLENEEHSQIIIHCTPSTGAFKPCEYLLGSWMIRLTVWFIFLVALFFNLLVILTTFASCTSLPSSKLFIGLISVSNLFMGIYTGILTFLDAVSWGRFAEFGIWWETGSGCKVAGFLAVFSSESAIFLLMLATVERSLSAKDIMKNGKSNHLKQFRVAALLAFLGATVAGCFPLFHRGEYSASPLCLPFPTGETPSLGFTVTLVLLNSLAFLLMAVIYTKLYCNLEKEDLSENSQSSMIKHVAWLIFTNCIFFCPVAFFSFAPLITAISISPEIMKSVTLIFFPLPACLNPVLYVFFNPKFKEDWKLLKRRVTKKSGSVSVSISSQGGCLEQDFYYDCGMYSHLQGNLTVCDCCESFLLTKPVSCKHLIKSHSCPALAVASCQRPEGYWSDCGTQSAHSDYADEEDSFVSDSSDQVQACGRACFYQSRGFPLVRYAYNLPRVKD
UniProt Q2MKA7, residues 21-263: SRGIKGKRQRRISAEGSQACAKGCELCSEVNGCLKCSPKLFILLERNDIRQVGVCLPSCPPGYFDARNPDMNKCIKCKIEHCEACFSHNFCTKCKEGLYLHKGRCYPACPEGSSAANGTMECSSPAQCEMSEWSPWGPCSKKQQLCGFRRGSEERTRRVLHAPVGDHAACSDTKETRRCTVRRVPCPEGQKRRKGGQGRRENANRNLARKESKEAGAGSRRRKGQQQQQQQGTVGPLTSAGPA

Target: human LGR4 (leucine-rich repeat-containing G-protein coupled receptor 4) (human) (UniProt Q9BXB1)
Assay: co-internalisation in A549 cells, microscopy

RSPO1-Fc (from UniProt Q2MKA7 21-263) (Fc fusion)
binding: binds
